# Measured values reported in article PMC4460818.
# Amino acid sequences for entries named in this document (tags omitted).
# UniProt Q15208: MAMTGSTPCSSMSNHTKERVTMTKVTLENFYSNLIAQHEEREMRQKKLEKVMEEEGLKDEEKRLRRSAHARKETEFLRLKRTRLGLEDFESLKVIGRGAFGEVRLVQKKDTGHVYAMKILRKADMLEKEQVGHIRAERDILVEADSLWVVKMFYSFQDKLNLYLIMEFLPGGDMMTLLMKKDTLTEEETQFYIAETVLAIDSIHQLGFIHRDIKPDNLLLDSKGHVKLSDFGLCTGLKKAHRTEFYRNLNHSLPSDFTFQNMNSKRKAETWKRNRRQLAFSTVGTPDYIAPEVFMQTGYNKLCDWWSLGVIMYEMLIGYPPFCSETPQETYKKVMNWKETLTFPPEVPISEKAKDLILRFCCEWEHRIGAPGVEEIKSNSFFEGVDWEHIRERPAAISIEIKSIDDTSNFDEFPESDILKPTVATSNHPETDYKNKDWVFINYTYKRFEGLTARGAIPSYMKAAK
# UniProt P53350: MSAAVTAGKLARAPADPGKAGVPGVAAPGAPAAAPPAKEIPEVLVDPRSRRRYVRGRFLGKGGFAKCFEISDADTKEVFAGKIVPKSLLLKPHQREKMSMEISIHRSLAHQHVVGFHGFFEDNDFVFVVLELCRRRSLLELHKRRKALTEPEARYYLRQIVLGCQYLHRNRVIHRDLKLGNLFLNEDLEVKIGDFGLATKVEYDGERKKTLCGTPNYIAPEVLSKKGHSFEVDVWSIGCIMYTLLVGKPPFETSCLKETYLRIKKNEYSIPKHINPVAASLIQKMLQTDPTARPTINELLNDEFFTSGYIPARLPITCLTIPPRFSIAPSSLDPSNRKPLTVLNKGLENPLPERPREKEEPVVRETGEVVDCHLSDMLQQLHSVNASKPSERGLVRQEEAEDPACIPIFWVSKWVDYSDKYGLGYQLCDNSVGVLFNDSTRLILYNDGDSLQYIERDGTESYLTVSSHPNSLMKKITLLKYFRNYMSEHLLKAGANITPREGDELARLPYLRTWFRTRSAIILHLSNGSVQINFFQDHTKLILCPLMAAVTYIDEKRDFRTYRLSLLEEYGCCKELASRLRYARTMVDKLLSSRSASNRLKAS
# These are yes or no findings as the source states them, for the method shown. For some assays here: In cells and extracts the contact can be indirect. Some results given as binding are weak or reduced against the parent protein; the word gives no strength.
# Columns and labels:
# [1] = biological target: FLAG-NDR1 wild type (human) (UniProt Q15208); experiment: co-IP; 293T cells transiently transfected with FLAG-NDR1 together with GFP or GFP-PLK1; immunoprecipitation with Flag antibody or IgG; immunoblot with Flag and GFP antibodies
# [2] = biological target: GST-PLK1 fusion protein (UniProt P53350); experiment: pull-down; GST or GST-fusion protein on agarose beads incubated with purified dissolved MBP-tagged proteins in PBS, 0.1% Triton X-100, 0.5 mM DTT, 4 °C, 3-8 hours; SDS-PAGE, CBB stain; bands quantified by ImageJ for the Mob1A pull-down; both purified
binding [1],binding [2],Substance
binds,,GFP-PLK1 (from UniProt P53350 1-603) (enzyme)
,binds,MBP-NDR1 wild type (from UniProt Q15208 1-465) (enzyme)
